# The list shows a part of the results. Further columns of the screen follow, without active or inactive calls. Most of these compounds were active or inconclusive in the main read-out, so they are no random draw. The note in brackets gives the kind of curve behind each potency; many fits are weak.
# Test: IkB Signaling
# Details: ABC-DLBCL IkBa-CBG/CBR dual luciferase ratio (green luciferase fused to IkBa over red control in OCI-Ly3 lymphoma cells), 4 h; measured here: control luc red channel unless noted
# Method in brief: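 Curves were fitted separately to fusion (green), unfused (red) and ratio luminescence, then classed by r2, magnitude and activity. Cells: OCI-Ly3, 4 h compound plus doxycycline at 37C; 10 uM MG-132 defined full response.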
row,Structure (SMILES),AC50
1,CCOc1cc2sc(N3CCC(C(=O)Nc4ccccc4Cl)CC3)nc2cc1Br,"2 µM [falling, full curve]"
2,Cc1ccc(-c2nn(CC(=O)NC3CCCC3)c3c2cnc2ccc(F)cc23)cc1C,"2 µM [rising, full curve, poor fit]"
3,Cc1cc(S(=O)(=O)C(CNC(=O)COc2ccccc2)c2cccs2)ccc1F (stereo not given),"39.8 µM [falling, single point]"
4,CCN(CC)C(=O)COc1ccc(-c2nnc(N3CCCCC3)c3ccccc23)cc1,"15.8 µM [falling, partial curve]"
5,COc1ccccc1Cn1cc(C(=O)c2ccc(Cl)cc2)c(=O)c2cc3c(cc21)OCCO3,"10 µM [falling, partial curve]"
6,CCCCOC(=O)c1ccc(NC(=O)c2ccc3c(c2)CCN3S(=O)(=O)c2ccccc2)cc1,"3.98 µM [rising, single point]"
7,O=C(Nc1ccc(F)cc1F)c1ccc(-c2ccccc2)s1,"0.126 µM [falling, full curve]"
8,Cc1ccc2nc(CSc3nnc(NC(=O)COc4ccccc4F)s3)cc(=O)n2c1,"25.1 µM [falling, partial curve, poor fit]"
9,COc1ccc(C)cc1N(CC(=O)N1CCC(C)CC1)S(=O)(=O)c1ccc(C)cc1,"25.1 µM [falling, single point]"
10,Cn1c(=O)c2c(-c3ccccc3Br)n(C(C)(C)C)cc2n(C)c1=O,"31.6 µM [falling, single point]"
11,O=C(NC1CCCCC1)c1cc(-c2ccco2)on1,"0.631 µM [falling, full curve]"
12,COc1ccc(-n2c(CCC(=O)O)ccc2-c2ccccc2)cc1,"5.01 µM [falling, partial curve]"
13,CCC(=O)N1CCc2cc(Br)cc(S(=O)(=O)N3CCCC(C(=O)Nc4ccc(CC)cc4)C3)c21 (stereo not given),"6.31 µM [falling, full curve, poor fit]"
14,CCOC(=O)c1cccc(NC(=O)Cc2ccc(NC(=O)N3CCCCc4ccccc43)cc2)c1,"15.8 µM [falling, single point]"
15,COc1ccc(NS(=O)(=O)c2ccc(SC)cc2)cc1,"12.6 µM [falling, partial curve]"
16,CCOC(=O)c1c(C)[nH]c(C)c1S(=O)(=O)N1CCCC(C(=O)N2CCN(c3ccc(Cl)cc3)CC2)C1 (stereo not given),"25.1 µM [falling, single point]"
17,O=C(Nc1ccccc1C(=O)OCc1cc(=O)n2c3c(sc2n1)CCCC3)c1ccc(Cl)cc1,"3.98 µM [falling, partial curve]"
18,Cc1nnc(N2CCN(c3ccccc3)CC2)c2c1nnn2Cc1ccc(F)cc1,"3.98 µM [falling, partial curve]"
19,CCOC(=O)c1[nH]c(C)c(CCC(=O)N2CCN(c3cc(Cl)ccc3C)CC2)c1C,"31.6 µM [falling, single point]"
20,Cc1cc2c(cc1S(=O)(=O)CCC(=O)NCc1ccccc1)OCC(=O)N2,"10 µM [falling, partial curve]"

row,Structure (SMILES),AC50
1,CCN(CC)c1ccc(NC(=O)C(NS(=O)(=O)c2cccs2)C(C)C)c(C)c1 (stereo not given),"31.6 µM [falling, single point]"
2,CCn1nc(-c2ccccc2)c(-c2ccccc2)c(C(=O)Nc2ccccc2C(N)=O)c1=O,"31.6 µM [falling, single point]"
3,Cc1cc(C)cc(NC(=O)CSCc2cc(=O)c3cc(Cl)ccc3[nH]2)c1,"31.6 µM [falling, single point]"
4,CC1(C)CC(=O)c2cc(-c3nc(-c4ccc(Br)cc4)cs3)c(=O)n(-c3ccccc3)c2C1,"6.31 µM [falling, single point]"
5,O=C(c1cnc(N2CCOCC2)c2ccccc12)N1CCN(c2ccc(F)cc2)CC1,"2.51 µM [rising, partial curve]"
6,O=C(CN1CCN(c2ncc(C(F)(F)F)cc2Cl)CC1)Nc1ccc2c(c1)OCO2,"25.1 µM [falling, partial curve]"
7,O=C1c2ccccc2-c2onc3c(Br)cc(NC4CCCCC4)c1c23,"39.8 µM [falling, single point]"
8,Cc1cccc(N2C(=O)CSC23C(=O)N(CC(=O)NCCc2ccccc2)c2ccccc23)c1 (stereo not given),"20 µM [falling, single point]"
9,Nc1nc(CN2CCN(c3ccc(F)cc3)CC2)nc(N2CCCc3ccccc32)n1,"12.6 µM [falling, partial curve]"
10,COc1cc2nc(NCc3ccccc3Cl)n3nc(-c4cccnc4)nc3c2cc1OC,"10 µM [falling, single point]"
11,COc1ccc(CC(=O)N2CC(=O)Nc3ccc(Br)cc3C2c2ccc(F)cc2)cc1OC (stereo not given),"39.8 µM [falling, single point]"
12,CC(NC(=O)C1CCN(c2nnc(-n3cccc3)s2)CC1)C12CC3CC(CC(C3)C1)C2 (stereo not given),"20 µM [falling, partial curve]"
13,COc1ccc(Cn2c(C(=O)O)c(CNC3CCC(C)CC3)c3ccc(C)cc32)cc1 (stereo not given),"39.8 µM [falling, single point]"
14,COc1cccc(CNC(=O)c2cc(-c3cccs3)nc3ccccc23)c1,"7.94 µM [falling, partial curve]"
15,Cn1nc(-c2ccccc2)c(-c2ccccc2)c(C(=O)Nc2ccc(S(N)(=O)=O)cc2)c1=O,"0.251 µM [rising, full curve, poor fit]"
16,Oc1c(Cl)cc(Cl)c(Cl)c1Cl,"31.6 µM [falling, partial curve]"
17,Cc1cccc(-n2c(SCC(=O)Nc3ccccc3Cl)nc3n[nH]c(C)c3c2=N)c1,"39.8 µM [falling, single point]"
18,COc1cccc(Nc2cc(-c3ccccc3)nc(C)n2)c1,"31.6 µM [falling, single point]"
19,CCN(CC)S(=O)(=O)c1ccc(C(=O)NCc2n[nH]c(=S)n2-c2ccccc2OC)cc1,"0.2 µM [falling, full curve]"
20,COc1ccc(C)c2sc(N(Cc3cccnc3)C(=O)COc3ccccc3)nc12,"0.01 µM [rising, full curve, poor fit]"

# Fetched one by one from the entries so far:
row,Structure (SMILES),AC50
15,Cn1nc(-c2ccccc2)c(-c2ccccc2)c(C(=O)Nc2ccc(S(N)(=O)=O)cc2)c1=O,"0.251 µM [rising, full curve, poor fit]"
4,CC1(C)CC(=O)c2cc(-c3nc(-c4ccc(Br)cc4)cs3)c(=O)n(-c3ccccc3)c2C1,"6.31 µM [falling, single point]"

# Source: PubChem BioAssay AID445 (National Center for Advancing Translational Sciences (NCATS), 2006)
